The results in this text go back to doi:10.1101/2021.09.29.461190.

By UniProt entry, the sequences of proteins in these tests, tags left out. Where a name states a change or a piece, a line headed by the entry shows the natural chain unless it says otherwise. Chains listed by the source or under a name are the forms on record and can include a tag or linker.
UniProt Q9LS94: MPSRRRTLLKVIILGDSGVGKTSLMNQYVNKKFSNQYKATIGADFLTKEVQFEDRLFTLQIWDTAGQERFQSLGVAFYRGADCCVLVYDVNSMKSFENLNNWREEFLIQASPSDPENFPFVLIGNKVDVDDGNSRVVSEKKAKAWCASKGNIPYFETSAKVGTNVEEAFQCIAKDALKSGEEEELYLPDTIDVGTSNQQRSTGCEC
UniProt P28188: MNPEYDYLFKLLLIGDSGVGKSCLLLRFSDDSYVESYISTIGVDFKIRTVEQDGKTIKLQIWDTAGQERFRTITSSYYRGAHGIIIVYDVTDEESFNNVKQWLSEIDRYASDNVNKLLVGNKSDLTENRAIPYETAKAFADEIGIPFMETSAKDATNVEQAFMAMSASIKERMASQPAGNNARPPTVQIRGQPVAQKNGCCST
UniProt O04157: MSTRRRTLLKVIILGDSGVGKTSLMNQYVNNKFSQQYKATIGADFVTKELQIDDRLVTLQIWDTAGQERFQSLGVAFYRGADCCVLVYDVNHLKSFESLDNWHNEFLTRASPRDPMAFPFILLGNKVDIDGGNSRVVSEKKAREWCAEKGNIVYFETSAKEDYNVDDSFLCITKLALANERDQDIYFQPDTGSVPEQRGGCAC
RFP-RABG3b constitutive active (CA) (O04157, form named): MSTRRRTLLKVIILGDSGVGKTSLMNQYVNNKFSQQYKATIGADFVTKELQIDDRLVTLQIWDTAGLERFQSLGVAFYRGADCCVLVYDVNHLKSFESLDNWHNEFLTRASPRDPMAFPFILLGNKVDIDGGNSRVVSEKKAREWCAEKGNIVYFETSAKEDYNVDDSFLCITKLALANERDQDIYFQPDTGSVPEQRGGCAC
RFP-RABG3b dominant-negative (DN) (O04157, form named): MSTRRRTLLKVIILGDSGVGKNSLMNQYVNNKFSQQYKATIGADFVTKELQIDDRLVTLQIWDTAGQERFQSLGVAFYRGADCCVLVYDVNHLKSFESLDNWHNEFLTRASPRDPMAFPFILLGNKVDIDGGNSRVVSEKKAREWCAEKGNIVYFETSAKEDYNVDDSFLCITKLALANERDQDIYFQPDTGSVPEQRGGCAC

In test [1] the target is T1, NET4A-GFP (Arabidopsis thaliana) (UniProt F4KEW8).
T1 sequence: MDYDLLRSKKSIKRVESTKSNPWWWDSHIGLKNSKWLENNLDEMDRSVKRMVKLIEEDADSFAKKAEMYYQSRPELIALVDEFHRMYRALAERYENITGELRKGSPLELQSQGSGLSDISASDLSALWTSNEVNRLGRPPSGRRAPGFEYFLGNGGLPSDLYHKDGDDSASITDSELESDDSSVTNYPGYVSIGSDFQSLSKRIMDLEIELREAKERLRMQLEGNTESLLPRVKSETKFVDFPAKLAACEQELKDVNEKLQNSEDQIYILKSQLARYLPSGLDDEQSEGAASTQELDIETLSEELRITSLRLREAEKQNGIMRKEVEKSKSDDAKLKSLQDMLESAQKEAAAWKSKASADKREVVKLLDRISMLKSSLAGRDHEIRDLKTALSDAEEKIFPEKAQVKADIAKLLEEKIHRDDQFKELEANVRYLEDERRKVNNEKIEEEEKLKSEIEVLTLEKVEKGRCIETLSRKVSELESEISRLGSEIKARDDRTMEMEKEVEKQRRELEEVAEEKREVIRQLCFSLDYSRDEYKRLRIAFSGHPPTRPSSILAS
Description: co-IP.

Test [2] deals with DN-RABG3f (T22N), yeast two-hybrid fusion (Arabidopsis thaliana) (UniProt Q9LS94). Description: two-hybrid.
The target in test [3] is RABG3f wild type, yeast two-hybrid fusion (Arabidopsis thaliana) (UniProt Q9LS94). Description: two-hybrid.
Test [4] addresses T2, RABF2a, yeast two-hybrid bait (Arabidopsis thaliana) (UniProt P31582).
T2 sequence: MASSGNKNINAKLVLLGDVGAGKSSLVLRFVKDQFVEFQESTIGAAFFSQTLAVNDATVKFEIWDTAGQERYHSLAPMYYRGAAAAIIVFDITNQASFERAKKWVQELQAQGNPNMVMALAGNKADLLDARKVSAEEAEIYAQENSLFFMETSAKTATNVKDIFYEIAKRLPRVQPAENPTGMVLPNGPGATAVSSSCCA
Description: two-hybrid.

Test [5] addresses T3, CA-RABG3a (Q67L), yeast two-hybrid fusion (Arabidopsis thaliana) (UniProt Q948K8).
T3 sequence: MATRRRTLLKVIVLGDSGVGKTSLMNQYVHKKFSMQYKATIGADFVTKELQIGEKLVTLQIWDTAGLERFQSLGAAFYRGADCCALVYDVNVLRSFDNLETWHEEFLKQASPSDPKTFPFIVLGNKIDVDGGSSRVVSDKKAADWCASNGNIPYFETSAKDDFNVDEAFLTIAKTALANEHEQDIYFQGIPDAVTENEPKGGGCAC
Description: two-hybrid.

The target in test [6] is T4, RABG3a wild type, yeast two-hybrid fusion (Arabidopsis thaliana) (UniProt Q948K8).
T4 sequence: T3 sequence with L67Q
In words: two-hybrid.

Test [7] addresses CA-RABG3f (Q67L), yeast two-hybrid fusion (Arabidopsis thaliana) (UniProt Q9LS94). Description: two-hybrid.
Test [8] has as its target T5, NET4B, full length, yeast two-hybrid fusion (Arabidopsis thaliana) (UniProt Q84VY2).
T5 sequence: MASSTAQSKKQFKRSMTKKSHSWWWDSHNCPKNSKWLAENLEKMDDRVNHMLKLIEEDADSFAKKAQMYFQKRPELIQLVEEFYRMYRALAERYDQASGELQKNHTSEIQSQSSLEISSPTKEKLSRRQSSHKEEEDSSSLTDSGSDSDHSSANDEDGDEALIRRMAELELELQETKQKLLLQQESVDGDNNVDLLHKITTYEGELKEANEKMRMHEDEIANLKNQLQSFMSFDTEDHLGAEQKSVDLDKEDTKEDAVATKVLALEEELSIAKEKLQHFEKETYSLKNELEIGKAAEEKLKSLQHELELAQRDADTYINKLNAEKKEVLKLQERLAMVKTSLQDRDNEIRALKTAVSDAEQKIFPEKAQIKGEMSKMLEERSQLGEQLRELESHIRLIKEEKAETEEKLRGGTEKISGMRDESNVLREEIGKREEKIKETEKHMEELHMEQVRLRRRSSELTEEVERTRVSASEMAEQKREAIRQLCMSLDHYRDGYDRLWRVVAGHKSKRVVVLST
In words: two-hybrid.

The target of test [9] is T6, DN-RABG3a (T22N), yeast two-hybrid fusion (Arabidopsis thaliana) (UniProt Q948K8).
T6 sequence: T3 sequence with T22N, L67Q
In words: two-hybrid.

Test [10] concerns the target T7, RABA5c, yeast two-hybrid bait (Arabidopsis thaliana) (UniProt P28187).
T7 sequence: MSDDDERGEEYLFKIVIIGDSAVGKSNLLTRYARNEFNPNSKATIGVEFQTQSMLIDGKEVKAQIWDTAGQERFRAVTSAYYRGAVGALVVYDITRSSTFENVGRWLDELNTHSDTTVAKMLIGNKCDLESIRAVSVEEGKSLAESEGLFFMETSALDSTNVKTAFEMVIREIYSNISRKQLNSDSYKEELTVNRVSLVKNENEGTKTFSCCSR
Description: two-hybrid.

For test [11], the target named is RABD2a, yeast two-hybrid bait (Arabidopsis thaliana) (UniProt P28188). In words: two-hybrid.
In test [12] the target is NET4A, full length, yeast two-hybrid fusion (Arabidopsis thaliana) (UniProt F4KEW8). In words: two-hybrid.
Test [13] concerns the target T8, NET4B residues 464-511 (RABG3 binding domain), yeast two-hybrid bait (Arabidopsis thaliana) (UniProt Q84VY2).
T8 sequence: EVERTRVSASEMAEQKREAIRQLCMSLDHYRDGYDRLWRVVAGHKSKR
Description: two-hybrid.

Where a chain is given by its changes, count along the chain named. Numbers in names are those of the source. Results are given in words; binding and its absence hold for the method and conditions named. For some of these results: In cells and extracts the contact can be indirect. Some entries that bind do so weakly or less than the wild type. Tags and fused reporters may be left off the sequences shown.

As to “RFP-RABG3b constitutive active (CA) (from UniProt O04157 1-203)”, the binding result in test [1] was “binds”.

For the molecule “RFP-RABG3b dominant-negative (DN) (from UniProt O04157 1-203)”, the binding result in test [1] is on record as “no binding”.

“RFP-RABG3b wild type (from UniProt O04157 1-203)”: the binding entry in test [1] is “binds”.

B1: NET4B, full length, yeast two-hybrid fusion (protein, UniProt Q84VY2 1-517)
chain: T5 sequence
With B1, the binding result in [2] is recorded as “no binding”; in [3], “binds”; in [4] it was “no binding”; in [5] it was “binds”; in [6], “binds”; in test [7], “binds”. In addition, the binding entry is reported as “binds” in test [8], “no binding” in [9], “no binding” in [10] and “no binding” in [11].

B2: NET4A, full length, yeast two-hybrid fusion (protein, UniProt F4KEW8 1-558)
chain: T1 sequence
With B2, the binding entry in test [2] is “no binding”; in [3], “binds”; in [4], “no binding”; in test [5], “binds”; in test [6], “binds”; in [7], “binds”. In addition, the binding entry in test [12] is “binds”; in [8] it was “binds”; in test [9] it was “no binding”; in test [10], “no binding”; in test [11] it was “no binding”.

B3: CA-RABG3a (Q67L), yeast two-hybrid fusion (protein, UniProt Q948K8 1-206)
chain: T3 sequence
Turning to B3, the binding entry in test [13] is on record as “binds”.
